EP4806903A1, “WHOLE-PROCESS TARGETING POLYPEPTIDE, PHARMACEUTICAL COMPLEX THEREOF, DRUG DELIVERY SYSTEM AND USE THEREOF” (Fudan University, priority 2023, dated 2025)
At least one compound was matched to its structure with a doubt left.

Key:
GRP78 protein [1] = experiment: Western blot of GRP78 protein on the cell membrane of U87 cells; assay type: cell-based; conditions: different concentrations, 48 hours
Description: After cells were subjected to various treatments, the culture medium was removed, and the cells were washed twice with pre-cooled PBS. The cells were then scraped off and collected into an EP tube. Membrane proteins were extracted using a cell membrane protein extraction kit, followed by centrifugation at 12,000 rpm at 4°C to obtain the supernatant, which was stored for later use. The total protein concentration was determined using the BCA assay, after which the sample was mixed with 5× loading buffer at a ratio of 4:1 and heated to denature the proteins. The samples were stored at -20°C for future use. Samples containing approximately 40 µg of protein were subjected to 15% polyacrylamide gel electrophoresis and then transferred onto polyvinylidene fluoride (PVDF) membranes. […]
After U87 cells were treated with free DOX at different concentrations for 48 hours, membrane proteins were extracted and detected using the method described above.
After U87 cells were treated with different concentrations of TMZ for 48 hours, membrane proteins were extracted and detected using the method described above.
After U87 cells were treated with 5 µg/mL TMZ for varying durations, membrane proteins were extracted and analyzed using the method described above.

in situ glioma = experiment: Efficacy of TMZ combined with peptide-DOX complex in in situ glioma; conditions: second day after completion of administration
GRP78 protein [2] = experiment: Immunofluorescence detection of GRP78 protein in orthotopic glioma mice; assay type: in vivo, nude mice

SMILES: Cn1nnc2c(C(N)=O)ncn2c1=O [TMZ, temozolomide]
- expression of GRP78 protein on the cell membrane surface of U87 cells (GRP78 protein [1]): significantly upregulated
- growth of orthotopic gliomas (HE staining of brain sections) (in situ glioma): partially inhibit the growth
- GRP78 protein expression in the tumor site (immunofluorescence) (GRP78 protein [2]; 10 mg/kg TMZ by gavage, 48 hours after administration): significantly increased
- GRP78 protein expression in normal brain tissue (immunofluorescence) (GRP78 protein [2]; 10 mg/kg TMZ by gavage, different time points): remained unchanged
- GRP78 protein expression in the tumors (immunofluorescence) (GRP78 protein [2]; high-, medium-, and low-concentration TMZ by gavage, 48 hours): varying degrees of increased GRP78 protein expression
